No constants are given. Whether binding was seen depends on the method and setting. Binding seen in cells or lysates may run through a third protein. These calls come from enrichment with a bait or labelling near it, and not all partners need be listed. Sequences can lack the tags named with a protein.
Molecular target: T1, GFP-tagged SCP8 (SCP8-GFP), Verticillium dahliae small cysteine-containing effector VdSCP8 (Verticillium dahliae) (UniProt G2XD53)
T1 sequence: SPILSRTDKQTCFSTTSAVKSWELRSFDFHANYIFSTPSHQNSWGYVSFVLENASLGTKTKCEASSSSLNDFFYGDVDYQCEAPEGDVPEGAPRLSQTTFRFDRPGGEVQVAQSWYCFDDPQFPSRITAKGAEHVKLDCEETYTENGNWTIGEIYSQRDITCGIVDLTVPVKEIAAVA
Assay: affinity purification with mass spectrometry; total proteins of N. benthamiana leaves transiently expressing SCP8-GFP (free GFP as control), immunoprecipitated with GFP-Trap agarose beads, trypsin digest, LC-MS/MS; proteins common to both samples removed

For “subtilase (SBT) Niben101Scf00726g02006.1 of N. benthamiana (enzyme)”, the binding was “binds”.
